Patent US20080021553A1
No constants are given. Whether binding was seen depends on the method and setting. Some results given as binding are weak or reduced against the parent protein; the word gives no strength. Tags and fused reporters may be left off the sequences shown.

Legend:
[1] = molecular target: His6-tagged ADF-4 (Araneus diadematus fibroin-4, partial cDNA product from pFastBacHTa, expressed in the cytoplasm of Sf9 cells) (Araneus diadematus); assay: self-assembly into filaments in the cytoplasm of Sf9 cells; light microscopy and anti-His6 immunofluorescence
[2] = molecular target: T7-tagged ADF-4 (Araneus diadematus fibroin-4, partial cDNA product, expressed in the cytoplasm of Sf9 cells) (Araneus diadematus); assay: self-assembly into filaments in Sf9 cells; light microscopy
[3] = molecular target: T7-tagged ADF-4 (Araneus diadematus fibroin-4, partial cDNA product, expressed in the cytoplasm of Sf9 cells) (Araneus diadematus); assay: self-assembly into filaments in Sf9 cells co-expressing adf-3 and adf-4; sedimentation and western blot

Binder	binding [1]	binding [2]	binding [3]
His6-tagged ADF-4 (Araneus diadematus fibroin-4, partial cDNA product from pFastBacHTa, expressed in the cytoplasm of Sf9 cells) (protein, not shown: small tags and cut ends) AGSSAAAAAAASGSGGYGPENQGPSGPVAYGPGGPVSSAAAAAAAGSGPGGYGPENQGPSGPGGYGPGGSGSSAAAAAAAASGPGGYGPGSQGPSGPGGSGGYGPGSQGASGPGGPGASAAAAAAAAAASGPGGYGPGSQGPSGPGAYGPGGPGSSAAAAAAAASGPGGYGPGSQGPSGPGVYGPGGPGSSAAAAAAAGSGPGGYGPENQGPSGPGGYGPGGSGSSAAAAAAAASGPGGYGPGSQGPSGPGGSGGYGPGSQGGSGPGASAAAAAAAASGPGGYGPGSQGPSGPGYQGPSGPGAYGPSPSASASVAASVYLRLQPRLEVSSAVSSLVSSGPTNGAAVSGALNSLVSQISASNPGLSGCDALVQALLELVSALVAILSSASIGQVNVSSVSQSTQMISQALS	binds		
T7-tagged ADF-4 (Araneus diadematus fibroin-4, partial cDNA product, expressed in the cytoplasm of Sf9 cells) (protein, not shown: small tags and cut ends) AGSSAAAAAAASGSGGYGPENQGPSGPVAYGPGGPVSSAAAAAAAGSGPGGYGPENQGPSGPGGYGPGGSGSSAAAAAAAASGPGGYGPGSQGPSGPGGSGGYGPGSQGASGPGGPGASAAAAAAAAAASGPGGYGPGSQGPSGPGAYGPGGPGSSAAAAAAAASGPGGYGPGSQGPSGPGVYGPGGPGSSAAAAAAAGSGPGGYGPENQGPSGPGGYGPGGSGSSAAAAAAAASGPGGYGPGSQGPSGPGGSGGYGPGSQGGSGPGASAAAAAAAASGPGGYGPGSQGPSGPGYQGPSGPGAYGPSPSASASVAASVYLRLQPRLEVSSAVSSLVSSGPTNGAAVSGALNSLVSQISASNPGLSGCDALVQALLELVSALVAILSSASIGQVNVSSVSQSTQMISQALS		binds	binds
